Source: publication PMC5844915
No constants are given. Whether binding was seen depends on the method and setting. Binding seen in cells or lysates may run through a third protein. Some results given as binding are weak or reduced against the parent protein; the word gives no strength. Blank lines part the entries; values can stand above or below the molecule they belong to.

The chains behind the UniProt entries cited, without tags or fusion partners.
UniProt Q8WWM9: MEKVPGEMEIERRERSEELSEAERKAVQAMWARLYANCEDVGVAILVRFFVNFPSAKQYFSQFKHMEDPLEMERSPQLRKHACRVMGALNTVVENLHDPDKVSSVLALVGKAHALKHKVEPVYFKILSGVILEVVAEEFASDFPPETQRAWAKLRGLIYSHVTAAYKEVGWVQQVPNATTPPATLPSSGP
UniProt O15392: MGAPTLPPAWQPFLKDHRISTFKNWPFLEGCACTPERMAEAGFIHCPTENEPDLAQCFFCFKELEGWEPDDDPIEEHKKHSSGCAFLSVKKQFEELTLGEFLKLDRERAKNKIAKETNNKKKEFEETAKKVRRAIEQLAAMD

What was measured:
[1] = target: T1, iRHOM2 (human (endogenous in control keratinocytes)) (UniProt Q6PJF5); assay: co-IP; endogenous proteins; 2 mg control keratinocyte lysate with 2 µg antibody and Sepharose protein G overnight at 4 °C; washed in NP-40 wash buffer (50 mM Tris pH 8.0, 150 mM NaCl, 1 mM EDTA, 1% NP40); rabbit IgG as control; immunoblot
T1 sequence: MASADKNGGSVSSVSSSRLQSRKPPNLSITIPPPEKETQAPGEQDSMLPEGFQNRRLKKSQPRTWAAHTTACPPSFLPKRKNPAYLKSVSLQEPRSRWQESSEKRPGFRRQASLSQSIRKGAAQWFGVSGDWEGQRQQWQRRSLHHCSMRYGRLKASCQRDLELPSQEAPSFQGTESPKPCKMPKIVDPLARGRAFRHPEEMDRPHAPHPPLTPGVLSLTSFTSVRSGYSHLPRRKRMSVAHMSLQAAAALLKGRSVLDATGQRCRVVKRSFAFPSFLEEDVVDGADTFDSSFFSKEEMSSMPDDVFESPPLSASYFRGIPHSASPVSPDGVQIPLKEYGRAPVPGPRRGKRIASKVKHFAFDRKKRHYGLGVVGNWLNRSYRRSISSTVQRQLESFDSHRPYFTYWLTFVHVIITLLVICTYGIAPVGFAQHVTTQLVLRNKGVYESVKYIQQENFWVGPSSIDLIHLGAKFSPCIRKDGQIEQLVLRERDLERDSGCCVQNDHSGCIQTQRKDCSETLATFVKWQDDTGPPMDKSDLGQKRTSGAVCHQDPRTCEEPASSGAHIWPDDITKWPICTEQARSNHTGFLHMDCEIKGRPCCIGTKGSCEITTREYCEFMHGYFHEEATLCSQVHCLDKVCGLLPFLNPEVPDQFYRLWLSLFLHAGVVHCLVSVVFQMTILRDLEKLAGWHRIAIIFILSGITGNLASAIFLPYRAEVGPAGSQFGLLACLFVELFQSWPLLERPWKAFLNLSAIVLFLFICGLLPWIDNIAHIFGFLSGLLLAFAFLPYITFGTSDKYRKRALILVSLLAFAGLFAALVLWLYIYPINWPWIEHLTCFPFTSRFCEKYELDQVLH

[2] = target: Cytoglobin (human (endogenous in control keratinocytes)) (UniProt Q8WWM9); assay: as above
[3] = target: SURVIVIN (human (endogenous in control keratinocytes)) (UniProt O15392); assay: as above
[4] = target: Cytoglobin (human (endogenous in control keratinocytes)) (UniProt Q8WWM9); assay: proximity ligation; Duolink in situ kit on fixed control keratinocytes (methanol acetone or PFA); primary antibodies overnight at 4 °C; confocal microscopy; no primary antibodies as negative control

Molecule: SURVIVIN (from UniProt O15392 1-142)
binding [1]: binds

binding [2]: binds | binding [4]: binds
B1: iRHOM2 (protein, UniProt Q6PJF5 1-856)
chain: T1 sequence
binding [3]: binds
